Assay results reported in PubChem BioAssay AID588590 (National Center for Advancing Translational Sciences (NCATS), 2011).
Hit rate of the full screen: of about 390,000 compounds, about 4,000 (1%) were called active. Inconclusive means that the source gave no clear call. Such entries were picked first, then a sample of the others. The call rests on the fitted dose curve; in most records, active means well fitted inhibition curve with a large enough effect; inconclusive means small, poorly fitted or top-dose-only effect, or another doubt; inactive means no such curve, though single readings can be large or run the other way. Where the call is inconclusive, the potency comes from a doubtful curve fit.

Protein sequences, listed by entry. Tags and fused reporters are not part of them. Lines headed by an entry give the natural chain unless they say otherwise; changes in a name come on top.
UniProt Q9UNA4: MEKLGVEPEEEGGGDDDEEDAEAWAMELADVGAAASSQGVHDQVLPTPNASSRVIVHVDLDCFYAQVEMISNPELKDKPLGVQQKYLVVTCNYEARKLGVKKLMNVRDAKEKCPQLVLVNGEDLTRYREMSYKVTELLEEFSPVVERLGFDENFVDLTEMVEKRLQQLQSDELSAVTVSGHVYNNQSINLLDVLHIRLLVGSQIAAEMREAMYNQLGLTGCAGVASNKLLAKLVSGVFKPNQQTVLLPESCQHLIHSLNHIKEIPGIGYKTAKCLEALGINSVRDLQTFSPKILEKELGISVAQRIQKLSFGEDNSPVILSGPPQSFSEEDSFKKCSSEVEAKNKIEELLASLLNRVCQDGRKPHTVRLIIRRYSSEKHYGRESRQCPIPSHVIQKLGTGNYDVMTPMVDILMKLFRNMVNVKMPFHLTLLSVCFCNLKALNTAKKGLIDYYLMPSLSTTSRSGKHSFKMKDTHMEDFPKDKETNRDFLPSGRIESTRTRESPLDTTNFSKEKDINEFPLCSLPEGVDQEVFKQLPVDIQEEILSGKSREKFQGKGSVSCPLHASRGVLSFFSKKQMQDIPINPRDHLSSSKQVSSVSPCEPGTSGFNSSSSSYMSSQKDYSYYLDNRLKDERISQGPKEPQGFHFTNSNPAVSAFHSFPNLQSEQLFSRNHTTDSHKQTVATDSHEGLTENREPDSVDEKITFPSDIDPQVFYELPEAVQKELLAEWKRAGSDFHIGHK

target: DNA polymerase iota (Homo sapiens) (UniProt Q9UNA4); experiment: qHTS for Inhibitors of Polymerase Iota; details: Pol iota fluorescent replication assay, 10 min; series mostly up to 115 µM
Method in brief: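 Pol iota at 10 nM preincubated 15 min with compounds at room temperature; reaction started with fluorescent substrate, 50 nM final. Fluorescence read kinetically at 0 and 10 min; buffer-only wells as negative control.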
Potency means the concentration at half of the fitted maximal effect.

Potency, inactive:
O=C(N/N=C/c1ccc(O)c(O)c1)c1cccc(S(=O)(=O)N2CCCCC2)c1
COC1=CCC2([N+](=O)[O-])CN(CCO)CC1([N+](=O)[O-])C2 (centres undefined)
COc1cc2c(cc1OC)n(CC(=O)Nc1ccc(C)cc1C)c(=O)n1nc(-c3ccccc3)nc21
O=c1cc(CSc2nnc(NC3CCCCC3)s2)nc2sccn12
COCCN(CCOC)S(=O)(=O)c1ccc(C(=O)NCCCN2CCOCC2)cc1
CC(C)c1cccc(C(C)C)c1NC(=O)CNCc1ccccc1F
CCN(CC)Cc1c(O)c(Cl)cc2c(C)c(C)c(=O)oc12

Potency, active:
C#CCOCCOCCOCCNc1nc(N2CCN(C(=O)Cn3cc(CCCCN)nn3)CC2)nc(N2CCN(C(=O)Cn3cc(CCCN=C(N)N)nn3)CC2)n1 35.5 µM
Cn1c2ccccc2c(=O)c2cc(C#CC3=CCCCC3)ccc21 3.98 µM
CCOc1ccc(NC(=O)CC2Nc3cccc4cccc(c34)NC2=O)cc1 (centres undefined) 5.01 µM

Potency, inconclusive:
CNc1nc(N/N=C/c2cc3c(cc2[N+](=O)[O-])OCO3)nc(Nc2ccccc2)n1 63.1 µM [inhibitor, single point]
O=C(COC(=O)Cc1c(F)cccc1Cl)Nc1ccc2[nH]c(=O)[nH]c2c1 31.6 µM [inhibitor, partial curve, poor fit]
Cc1ccccc1N1CC(C(=O)Nc2nnc(SCc3cccnc3)s2)CC1=O (centres undefined) 17.8 µM [inhibitor, full curve, poor fit]
COc1ccc(Cl)cc1NS(=O)(=O)c1c(C)nc2sccn2c1=O 100 µM [inhibitor, partial curve, poor fit]
CN(C)S(=O)(=O)c1ccc(Cl)c(NC(=O)COC(=O)/C=C/c2ccco2)c1 56.2 µM [inhibitor, partial curve, poor fit]
COCC(=O)Nc1nc2n(n1)C(c1ccc(Cl)cc1)CC(c1ccc(OC)cc1)N2 (centres undefined) 7.08 µM [inhibitor, partial curve]
Cc1ccc2nc(-c3ccc(SCC(=O)N4CCc5ccccc54)nc3)[nH]c2c1 89.1 µM [inhibitor, partial curve, poor fit]
O=C(NCc1ccc(OC(F)(F)F)cc1)c1cccc2c1C(=O)c1ccc(N3CCCC3)cc1S2(=O)=O 39.8 µM [inhibitor, single point]
COc1ccc(-c2nc3ccc(NC(C)=O)cc3c(=O)n2Cc2cccc(Cl)c2)cc1COc1ccc(NC(C)=O)cc1 89.1 µM [inhibitor, partial curve, poor fit]
COC(=O)c1sc(NC(=O)c2ccc(Cn3cc(Cl)cn3)o2)c(C#N)c1C 39.8 µM [inhibitor, full curve, poor fit]
CC(C)(C)C(=O)Nc1ccc(N2CCCC2)cc1 22.4 µM [inhibitor, partial curve, poor fit]
O=C(O)CCn1cc(C2CC(c3ccccc3)=NN2c2ccccc2)c(-c2ccccc2)n1 (centres undefined) 50.1 µM [inhibitor, partial curve, poor fit]
CSc1ccccc1-c1nnc(-c2ccc(Cl)cc2)o1 39.8 µM [inhibitor, single point]
CCCN1CCN(CCNC(=O)Nc2cc(C)ccc2C)CC1 0.708 µM [inhibitor, full curve, poor fit]
COc1ccccc1CNC(=O)CCCn1c(=O)c2ccccc2n(CC(=O)Nc2ccc(C)cc2Cl)c1=O 89.1 µM [inhibitor, single point]
O=C(O)CSc1nc2ccccc2c(=O)[nH]1 89.1 µM [inhibitor, single point]
O=C1Nc2cc(Cl)c(Cl)cc2N(O)N1c1ccc(Cl)cc1 79.4 µM [inhibitor, partial curve, poor fit]
COc1cc(/C=C2\SC(=O)N(c3ccccc3Cl)C2=O)cc([N+](=O)[O-])c1O 10 µM [inhibitor, full curve]
Cc1ccc(C2C(C(=O)c3cccs3)=C(O)C(=O)N2CCN2CCOCC2)o1 (centres undefined) 14.1 µM [inhibitor, partial curve, poor fit]
CCN(CC)CC(=O)Nc1cccc2c1C(=O)c1ccccc1C2=O 22.4 µM [inhibitor, full curve, poor fit]
Cc1ccc(S(=O)(=O)Nc2cc(Br)cc3cccnc23)cc1 50.1 µM [inhibitor, partial curve]
CC(C)CNC(=O)COC(=O)c1c2c(nc3ccccc13)CCC2 20 µM [inhibitor, full curve, poor fit]
CC(=O)COC(=O)C1CCN(S(=O)(=O)c2cc([N+](=O)[O-])ccc2Cl)CC1 44.7 µM [inhibitor, partial curve, poor fit]
C#CCSc1nccc(-c2nn(-c3ccc(C)cc3)ccc2=O)n1 44.7 µM [inhibitor, partial curve, poor fit]
Cc1ccc(C(=O)/C=C/c2ccc3ncccc3c2)cc1 15.8 µM [inhibitor, partial curve, poor fit]
COc1ccc(NC(=O)CCc2nc3cccnc3n2-c2ccccc2)c(OC)c1 70.8 µM [inhibitor, single point]
Cc1cccc2sc(N(Cc3cccnc3)C(=O)CCS(=O)(=O)c3ccccc3)nc12 44.7 µM [inhibitor, partial curve]
COc1ccc2c(c1)CCCC(Br)C2=O (centres undefined) 35.5 µM [inhibitor, single point]
COc1ccc(-c2cc(C(F)(F)F)nc(S(C)(=O)=O)n2)cc1OC 17.8 µM [inhibitor, partial curve, poor fit]

A run of entries from further up:
Potency, inconclusive:
COc1ccc(-c2nc3ccc(NC(C)=O)cc3c(=O)n2Cc2cccc(Cl)c2)cc1COc1ccc(NC(C)=O)cc1 89.1 µM [inhibitor, partial curve, poor fit]
COC(=O)c1sc(NC(=O)c2ccc(Cn3cc(Cl)cn3)o2)c(C#N)c1C 39.8 µM [inhibitor, full curve, poor fit]
